Some of the results follow.

By UniProt entry, the sequences of proteins in these tests, tags left out. Where a name states a change or a piece, a line headed by the entry shows the natural chain unless it says otherwise.
UniProt Q96HA1, whole entry, looked up: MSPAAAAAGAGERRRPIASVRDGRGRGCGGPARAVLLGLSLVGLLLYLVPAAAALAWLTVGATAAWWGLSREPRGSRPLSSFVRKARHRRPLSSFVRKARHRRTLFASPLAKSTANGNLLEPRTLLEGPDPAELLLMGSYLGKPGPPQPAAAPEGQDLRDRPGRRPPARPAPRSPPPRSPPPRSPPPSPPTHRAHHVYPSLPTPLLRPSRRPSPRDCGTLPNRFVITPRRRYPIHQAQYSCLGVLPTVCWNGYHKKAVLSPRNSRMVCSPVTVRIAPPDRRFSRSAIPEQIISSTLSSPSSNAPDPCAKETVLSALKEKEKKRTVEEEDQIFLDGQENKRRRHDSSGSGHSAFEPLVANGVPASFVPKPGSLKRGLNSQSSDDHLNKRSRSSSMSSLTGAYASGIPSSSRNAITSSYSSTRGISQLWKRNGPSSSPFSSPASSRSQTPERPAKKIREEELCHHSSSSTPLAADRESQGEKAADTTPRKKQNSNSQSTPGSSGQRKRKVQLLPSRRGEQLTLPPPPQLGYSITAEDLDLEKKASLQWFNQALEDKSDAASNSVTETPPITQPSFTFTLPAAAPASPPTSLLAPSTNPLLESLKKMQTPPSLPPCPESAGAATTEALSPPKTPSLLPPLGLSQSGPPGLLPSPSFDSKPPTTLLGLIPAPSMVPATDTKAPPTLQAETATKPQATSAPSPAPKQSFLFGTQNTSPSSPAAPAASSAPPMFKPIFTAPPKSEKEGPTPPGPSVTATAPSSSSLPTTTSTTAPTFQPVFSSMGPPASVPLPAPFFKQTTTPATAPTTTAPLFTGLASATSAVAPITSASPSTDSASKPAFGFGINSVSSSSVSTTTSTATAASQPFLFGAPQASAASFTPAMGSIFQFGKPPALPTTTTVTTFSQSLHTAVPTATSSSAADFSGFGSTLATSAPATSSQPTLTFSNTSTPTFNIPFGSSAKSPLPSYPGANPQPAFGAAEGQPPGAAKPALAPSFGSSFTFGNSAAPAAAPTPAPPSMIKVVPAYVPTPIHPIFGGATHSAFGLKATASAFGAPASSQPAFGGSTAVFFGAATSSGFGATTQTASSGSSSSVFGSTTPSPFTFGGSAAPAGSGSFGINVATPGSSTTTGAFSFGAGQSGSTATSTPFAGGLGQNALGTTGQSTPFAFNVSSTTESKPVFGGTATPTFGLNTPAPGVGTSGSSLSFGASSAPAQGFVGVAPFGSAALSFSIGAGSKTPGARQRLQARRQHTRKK
UniProt Q15126: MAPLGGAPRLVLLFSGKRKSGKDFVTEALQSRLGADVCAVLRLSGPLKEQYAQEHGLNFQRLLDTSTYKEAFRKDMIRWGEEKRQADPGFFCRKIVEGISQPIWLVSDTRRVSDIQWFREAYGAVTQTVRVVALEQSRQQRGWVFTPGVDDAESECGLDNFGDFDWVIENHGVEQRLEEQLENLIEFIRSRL
UniProt Q8WVV4: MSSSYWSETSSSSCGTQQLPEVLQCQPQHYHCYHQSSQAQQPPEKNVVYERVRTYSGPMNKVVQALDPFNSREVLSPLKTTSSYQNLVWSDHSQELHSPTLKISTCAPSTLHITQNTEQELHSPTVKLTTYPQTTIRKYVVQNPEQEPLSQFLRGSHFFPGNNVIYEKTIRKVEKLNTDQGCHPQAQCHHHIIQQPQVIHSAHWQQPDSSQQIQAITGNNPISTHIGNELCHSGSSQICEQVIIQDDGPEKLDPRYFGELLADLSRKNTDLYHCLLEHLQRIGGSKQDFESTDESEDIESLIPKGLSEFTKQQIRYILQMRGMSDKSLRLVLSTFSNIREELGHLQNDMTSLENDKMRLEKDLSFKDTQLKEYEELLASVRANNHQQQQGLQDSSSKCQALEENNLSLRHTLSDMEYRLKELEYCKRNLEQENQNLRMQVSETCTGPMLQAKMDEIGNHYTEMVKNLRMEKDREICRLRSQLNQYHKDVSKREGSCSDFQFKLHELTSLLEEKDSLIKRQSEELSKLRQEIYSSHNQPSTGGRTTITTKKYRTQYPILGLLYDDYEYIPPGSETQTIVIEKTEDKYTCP
UniProt O60664: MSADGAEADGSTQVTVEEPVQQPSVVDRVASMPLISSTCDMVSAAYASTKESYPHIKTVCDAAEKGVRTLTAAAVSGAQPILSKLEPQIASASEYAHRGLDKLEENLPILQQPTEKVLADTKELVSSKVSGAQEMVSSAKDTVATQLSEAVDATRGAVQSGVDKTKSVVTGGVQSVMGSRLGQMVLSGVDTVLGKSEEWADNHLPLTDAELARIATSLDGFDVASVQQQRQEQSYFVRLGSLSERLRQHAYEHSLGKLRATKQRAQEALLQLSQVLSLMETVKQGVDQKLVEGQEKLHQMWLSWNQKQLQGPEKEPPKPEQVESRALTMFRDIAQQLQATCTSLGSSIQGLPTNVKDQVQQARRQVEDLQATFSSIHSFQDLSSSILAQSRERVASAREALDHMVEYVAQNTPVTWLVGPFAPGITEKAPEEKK
UniProt O43157, whole entry, looked up: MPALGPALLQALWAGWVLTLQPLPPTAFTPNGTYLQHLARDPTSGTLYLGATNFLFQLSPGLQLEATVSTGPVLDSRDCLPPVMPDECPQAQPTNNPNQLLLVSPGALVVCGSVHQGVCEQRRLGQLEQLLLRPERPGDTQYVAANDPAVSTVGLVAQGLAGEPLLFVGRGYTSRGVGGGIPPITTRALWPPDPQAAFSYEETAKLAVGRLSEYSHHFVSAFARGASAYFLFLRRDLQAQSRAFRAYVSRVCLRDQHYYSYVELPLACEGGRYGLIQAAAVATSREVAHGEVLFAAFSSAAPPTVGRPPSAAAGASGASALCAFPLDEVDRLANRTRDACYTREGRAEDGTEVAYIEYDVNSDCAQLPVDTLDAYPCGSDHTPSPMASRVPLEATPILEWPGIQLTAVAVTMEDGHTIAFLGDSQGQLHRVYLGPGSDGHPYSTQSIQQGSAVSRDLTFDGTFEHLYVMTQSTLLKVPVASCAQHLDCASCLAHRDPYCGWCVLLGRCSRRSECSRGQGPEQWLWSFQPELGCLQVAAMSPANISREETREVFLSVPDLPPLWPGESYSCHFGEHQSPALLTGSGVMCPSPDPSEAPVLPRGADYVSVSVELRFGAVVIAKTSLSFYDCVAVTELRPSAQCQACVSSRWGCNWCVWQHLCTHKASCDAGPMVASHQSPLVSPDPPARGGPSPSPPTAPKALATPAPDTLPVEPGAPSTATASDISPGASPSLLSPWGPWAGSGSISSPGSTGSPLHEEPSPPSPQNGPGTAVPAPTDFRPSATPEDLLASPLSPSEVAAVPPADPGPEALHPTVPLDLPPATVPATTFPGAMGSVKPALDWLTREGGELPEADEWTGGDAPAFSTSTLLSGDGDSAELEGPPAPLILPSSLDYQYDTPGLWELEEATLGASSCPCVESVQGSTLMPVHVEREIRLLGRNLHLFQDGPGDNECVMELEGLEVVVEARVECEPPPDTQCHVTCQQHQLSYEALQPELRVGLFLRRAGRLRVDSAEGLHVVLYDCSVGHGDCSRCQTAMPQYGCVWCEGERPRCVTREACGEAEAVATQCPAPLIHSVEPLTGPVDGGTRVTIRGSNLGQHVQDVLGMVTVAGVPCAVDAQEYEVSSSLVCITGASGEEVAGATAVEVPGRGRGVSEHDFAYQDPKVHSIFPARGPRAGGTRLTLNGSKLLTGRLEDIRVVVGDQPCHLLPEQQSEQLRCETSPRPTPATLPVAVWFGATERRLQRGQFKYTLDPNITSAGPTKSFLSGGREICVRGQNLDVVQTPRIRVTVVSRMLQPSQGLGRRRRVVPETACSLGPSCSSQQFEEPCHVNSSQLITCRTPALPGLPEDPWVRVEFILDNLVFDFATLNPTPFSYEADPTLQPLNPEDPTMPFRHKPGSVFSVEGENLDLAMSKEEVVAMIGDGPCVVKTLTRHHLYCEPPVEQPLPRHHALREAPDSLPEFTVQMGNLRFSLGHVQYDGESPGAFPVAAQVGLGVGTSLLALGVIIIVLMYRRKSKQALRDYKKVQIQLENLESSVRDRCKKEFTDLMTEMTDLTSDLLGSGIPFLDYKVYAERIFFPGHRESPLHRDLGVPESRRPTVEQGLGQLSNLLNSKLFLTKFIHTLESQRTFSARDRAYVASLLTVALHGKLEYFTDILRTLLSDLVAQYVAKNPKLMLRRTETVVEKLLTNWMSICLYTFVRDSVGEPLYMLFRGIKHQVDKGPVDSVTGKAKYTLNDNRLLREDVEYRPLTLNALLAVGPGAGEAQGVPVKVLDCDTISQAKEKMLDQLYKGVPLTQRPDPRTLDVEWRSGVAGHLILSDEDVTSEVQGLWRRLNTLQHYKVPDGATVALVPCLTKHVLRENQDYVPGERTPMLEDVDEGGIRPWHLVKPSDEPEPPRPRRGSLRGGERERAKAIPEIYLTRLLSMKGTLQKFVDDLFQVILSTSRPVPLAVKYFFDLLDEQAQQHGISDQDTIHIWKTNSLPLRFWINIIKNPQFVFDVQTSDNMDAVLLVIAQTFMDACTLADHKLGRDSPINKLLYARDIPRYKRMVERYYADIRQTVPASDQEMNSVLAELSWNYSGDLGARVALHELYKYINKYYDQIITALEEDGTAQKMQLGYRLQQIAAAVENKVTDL
UniProt O75145: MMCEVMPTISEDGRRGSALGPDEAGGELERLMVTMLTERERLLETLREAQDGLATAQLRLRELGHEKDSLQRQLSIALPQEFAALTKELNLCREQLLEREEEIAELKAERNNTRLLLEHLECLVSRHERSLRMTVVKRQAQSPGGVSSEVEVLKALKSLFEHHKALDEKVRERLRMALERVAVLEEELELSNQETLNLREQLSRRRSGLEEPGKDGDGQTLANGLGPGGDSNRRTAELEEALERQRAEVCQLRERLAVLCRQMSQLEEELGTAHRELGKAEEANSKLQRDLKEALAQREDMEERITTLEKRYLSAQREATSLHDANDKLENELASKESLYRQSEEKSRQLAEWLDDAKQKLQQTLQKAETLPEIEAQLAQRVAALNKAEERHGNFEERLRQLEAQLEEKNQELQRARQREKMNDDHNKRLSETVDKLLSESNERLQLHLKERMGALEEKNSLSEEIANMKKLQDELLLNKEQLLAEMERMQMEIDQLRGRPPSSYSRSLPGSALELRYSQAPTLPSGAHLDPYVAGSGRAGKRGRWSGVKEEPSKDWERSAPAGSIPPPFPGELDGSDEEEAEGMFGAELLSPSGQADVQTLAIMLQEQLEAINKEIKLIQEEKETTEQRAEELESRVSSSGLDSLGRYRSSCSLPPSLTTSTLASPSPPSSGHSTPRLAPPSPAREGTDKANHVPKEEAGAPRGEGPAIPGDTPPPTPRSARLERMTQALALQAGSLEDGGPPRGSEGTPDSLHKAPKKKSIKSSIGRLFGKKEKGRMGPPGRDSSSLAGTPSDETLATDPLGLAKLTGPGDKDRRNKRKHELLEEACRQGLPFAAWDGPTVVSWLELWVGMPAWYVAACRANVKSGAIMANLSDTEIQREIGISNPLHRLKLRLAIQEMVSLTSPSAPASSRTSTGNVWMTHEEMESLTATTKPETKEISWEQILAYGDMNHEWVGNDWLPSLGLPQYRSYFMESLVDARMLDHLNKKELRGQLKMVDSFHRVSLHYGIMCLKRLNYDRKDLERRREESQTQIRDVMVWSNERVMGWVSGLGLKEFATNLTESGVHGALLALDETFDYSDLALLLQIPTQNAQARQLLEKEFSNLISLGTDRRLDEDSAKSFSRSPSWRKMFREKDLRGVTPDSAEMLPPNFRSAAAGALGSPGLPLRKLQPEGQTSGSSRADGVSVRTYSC
UniProt Q13427: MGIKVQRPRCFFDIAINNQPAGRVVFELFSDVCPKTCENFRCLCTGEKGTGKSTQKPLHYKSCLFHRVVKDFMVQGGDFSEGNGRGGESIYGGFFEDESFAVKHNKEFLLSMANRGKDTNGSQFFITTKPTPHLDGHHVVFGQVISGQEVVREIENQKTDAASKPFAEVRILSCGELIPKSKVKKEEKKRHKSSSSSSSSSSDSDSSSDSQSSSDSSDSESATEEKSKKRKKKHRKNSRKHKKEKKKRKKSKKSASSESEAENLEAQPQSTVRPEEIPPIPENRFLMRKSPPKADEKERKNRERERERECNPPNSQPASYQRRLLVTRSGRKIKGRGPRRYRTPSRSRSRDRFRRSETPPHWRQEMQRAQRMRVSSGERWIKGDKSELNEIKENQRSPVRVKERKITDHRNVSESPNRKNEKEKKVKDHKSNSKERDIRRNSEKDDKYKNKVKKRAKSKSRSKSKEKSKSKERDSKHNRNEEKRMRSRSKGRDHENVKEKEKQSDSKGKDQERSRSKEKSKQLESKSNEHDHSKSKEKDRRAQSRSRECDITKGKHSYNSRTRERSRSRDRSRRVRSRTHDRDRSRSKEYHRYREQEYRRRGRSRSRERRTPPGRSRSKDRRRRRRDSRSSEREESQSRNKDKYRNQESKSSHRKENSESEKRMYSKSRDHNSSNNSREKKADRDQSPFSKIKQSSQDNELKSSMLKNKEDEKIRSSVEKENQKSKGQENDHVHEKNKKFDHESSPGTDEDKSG

Consider 17 targets from the supplement of paper PMC10849652.

What all share (test): log2 fold change, soluble protein after heating vs DMSO (PISA); higher = thermal stabilisation; K562 cells, 10 uM, 30 min; active = over 0.2 and 3.5 SD of the protein, either way, in both replicates (recomputed)
Compound in assay [1]: COC1=CC=C(C=C1)CN2C=CC3=C2C=C(C=C3)C(=O)NO
The essentials: (§1)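 Thermal stability values are relative to control samples and come from duplicates. They are expressed as log2 fold changes. For measurement, K562 cells (2×10^6 cells/mL) received 10 μM compound for 30 min, and aliquots were heated for 3 min over 48°C-58°C, pooled, and extracted at 4°C in PBS with 0.5% NP-40. Soluble protein, the supernatant after 21,000xg for 90 min, was quantified by TMTpro 16plex LC-MS/MS with equalised channel sums.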

Compound in a further assay: CON(C)C(=O)N1N=C(c2cc(F)ccc2F)S[C@@]1(CCCN)c1ccccc1 [filanesib]
The essentials: as §1

Compound in a further assay: CO[C@H]1C[C@@H]2CC[C@@H](C)[C@@](O)(O2)C(=O)C(=O)N2CCCC[C@H]2C(=O)O[C@H]([C@H](C)C[C@@H]2CC[C@H](n3cnnn3)[C@H](OC)C2)CC(=O)[C@H](C)/C=C(\C)[C@@H](O)[C@@H](OC)C(=O)[C@H](C)C[C@H](C)/C=C/C=C/C=C/1C [zotarolimus]
The essentials: as §1

Compound in the next assay: COc1cc(C(=O)O)ccc1NC(=O)[C@@H]1N[C@@H](CC(C)(C)C)[C@](C#N)(c2ccc(Cl)cc2F)[C@H]1c1cccc(Cl)c1F [idasanutlin]
The essentials: as §1

Compound in assay [2]: COc1cc2nc(-c3cc(F)ccc3O)nc(N[C@@H]3CNC[C@H]3C(C)(C)O)c2cc1OC
The essentials:
as §1

Compound in the next assay: COc1cc2ncnc(Nc3ccc(F)c(Cl)c3)c2cc1OCCCN1CCOCC1 [gefitinib]
The essentials: as §1

Compound in another assay: CS(=O)(=O)CCNCc1ccc(-c2ccc3ncnc(Nc4ccc(OCc5cccc(F)c5)c(Cl)c4)c3c2)o1 [lapatinib]
In short, it runs like this:
as §1

Compound in another assay: CS(=O)(=O)N1CCN(Cc2cc3nc(-c4cccc5[nH]ncc45)nc(N4CCOCC4)c3s2)CC1 [pictilisib]
The essentials:
as §1

Compound in assay [3]: CS(=O)(=O)c1ccc(-c2cnc(N)c(C(=O)Nc3ccccc3)n2)cc1
The essentials:
as §1

Compound in the next assay: C[C@@H](Oc1cc(-c2cnn(C3CCNCC3)c2)cnc1N)c1c(Cl)ccc(F)c1Cl [crizotinib]
The essentials: as §1

Compound in assay [4]: C[C@@H]1COCCN1C2=NC(=NC(=C2)C3(CC3)S(=O)(=O)C)C4=C5C=CNC5=CC=C4
The essentials:
as §1

Compound in assay [5]: C[C@H](C1=CC=C(C=C1)C(=O)NC2=C3C=CNC3=NC=C2)N
The essentials:
as §1

Compound in another assay: Cc1cc(Nc2cc(CN3CCOCC3)c3nc(C)c(Cc4ccc(Cl)cc4F)n3n2)n[nH]1 [gandotinib]
The essentials: as §1

Compound in assay [6]: Cc1cc(SCc2sc(-c3ccc(C(F)(F)F)cc3)nc2C)ccc1OCC(=O)O
In short, it runs like this:
as §1

Compound in a further assay: Cc1ccc(-n2nc(C(C)(C)C)cc2NC(=O)Nc2ccc(OCCN3CCOCC3)c3ccccc23)cc1 [doramapimod]
In short, it runs like this:
as §1

Compound in another assay: Cc1ccc(C(=O)N(CCCN)[C@@H](c2nc3cc(Cl)ccc3c(=O)n2Cc2ccccc2)C(C)C)cc1 [ispinesib]
In short, it runs like this: as §1

Compound in a further assay: C[C@H](Nc1ncnc2nc[nH]c12)c1cc2cccc(Cl)c2c(=O)n1-c1ccccc1 [duvelisib]
The essentials: as §1

Compound in the next assay: Cc1cc(Nc2cc(N3CCN(C)CC3)nc(Sc3ccc(NC(=O)C4CC4)cc3)n2)n[nH]1 [tozasertib]
In short, it runs like this: as §1

Compound in a further assay: COc1cc(Nc2ncc3c(n2)-c2ccc(Cl)cc2C(c2c(F)cccc2OC)=NC3)ccc1C(=O)O [alisertib]
In short, it runs like this:
as §1

Compound in assay [7]: COc1cccc2cc(-c3nc([C@H]4CC[C@H](C(=O)O)CC4)n4ncnc(N)c34)[nH]c12
In short, it runs like this: as §1

Take POM121 (UniProt Q96HA1): the log2 fold change is inactive: -0.03 in assay [1]; inactive: 0.055 with filanesib; inactive: -0.018 with zotarolimus; inactive: 0.146 with idasanutlin; inactive: -0.027 in assay [2]; inactive: -0.002 with gefitinib. The log2 fold change is inactive: -0.01 in the assay with lapatinib; inactive: 0.003 with pictilisib; inactive: 0.024 in [3]; inactive: -0.139 in the assay with crizotinib; inactive: -0.016 in assay [4]; inactive: 0.084 in assay [5]. The log2 fold change with gandotinib was inactive: -0.043; in assay [6] it was inactive: 0.008; in the assay with doramapimod it was inactive: 0.134; with ispinesib it was active: -0.307.
Regarding PM20D2 (UniProt Q8IYS1), the log2 fold change in the assay with filanesib is inactive: -0.48; in assay [3], inactive: -0.022; with duvelisib it was inactive: 0.151; in the assay with tozasertib, inactive: -0.035; in assay [6], inactive: -0.016; with ispinesib, inactive: -0.183.
With PPHLN1 (UniProt Q8NEY8), the log2 fold change in assay [1] was inactive: -0.099; with alisertib, inactive: -0.024; in assay [2] it was inactive: 0.071; in assay [7], inactive: 0.022; in the assay with lapatinib, inactive: -0.013; with pictilisib, inactive: 0.057. For the same target, the log2 fold change with crizotinib is inactive: 0.094; in the assay with duvelisib, inactive: 0.153; in the assay with gandotinib, inactive: -0.098; in assay [6], inactive: -0.089; with doramapimod, inactive: 0.076; in the assay with ispinesib, inactive: -0.155.
PMAIP1 (UniProt Q13794): the log2 fold change was inactive: 0.053 in the assay with filanesib; inactive: 0.236 with zotarolimus; inactive: 0.143 with idasanutlin; inactive: -0.059 in the assay with alisertib; inactive: -0.433 in assay [2]; inactive: -0.363 with gefitinib. Further, the log2 fold change in assay [7] was inactive: 0.046; in the assay with lapatinib it was inactive: -0.095; in the assay with pictilisib, inactive: 0.037; in assay [3] it was inactive: -0.005; in [4], inactive: 0.02; in assay [5], inactive: -0.065. Besides, the log2 fold change was inactive: 0.233 with duvelisib; inactive: -0.048 with gandotinib; inactive: -0.128 with tozasertib; inactive: -0.041 in assay [6]; inactive: 0.016 with ispinesib.
Consider POLG, A0A3B3IS91, for which the log2 fold change with alisertib is inactive: -0.258; in assay [7] it was inactive: -0.271; in the assay with duvelisib it was inactive: 0.204; with tozasertib, inactive: -0.113; in [6] it was inactive: -0.001.
For PMVK (UniProt Q15126), the log2 fold change in the assay with filanesib was inactive: 0.198; with zotarolimus, inactive: 0.083; with idasanutlin, inactive: 0.064; with alisertib, inactive: 0.047; with gefitinib, inactive: -0.189; in assay [7], inactive: -0.144. The log2 fold change with pictilisib was inactive: 0.073; in assay [3], inactive: 0.088; in assay [4], inactive: 0.02; in assay [5] it was inactive: 0.083; with gandotinib it was active: -0.705; in [6], inactive: 0.333.
On to PORCN (UniProt Q9H237), for which the log2 fold change with zotarolimus is inactive: 0.033; in assay [5], inactive: -0.055; with ispinesib, inactive: -0.248.
As to POF1B isoform 1 (UniProt Q8WVV4), the log2 fold change was inactive: 1.92 with alisertib; inactive: 0.321 with gefitinib; inactive: -0.01 in assay [7]; inactive: -0.098 with duvelisib; inactive: 0.152 in the assay with tozasertib; inactive: 0.243 in assay [6].
For POLE2 (UniProt P56282), the log2 fold change in assay [1] was inactive: -0.114; with pictilisib, inactive: 0.086; with crizotinib, inactive: 0.138; in the assay with gandotinib, inactive: -0.047; in the assay with doramapimod, inactive: 0.148; with ispinesib it was inactive: -0.014.
For PLIN3 isoform 2 (UniProt O60664), the log2 fold change was inactive: 0.226 with filanesib; inactive: 0.279 in the assay with idasanutlin; inactive: 0.085 with alisertib; inactive: -0.02 in assay [2]; inactive: 0.039 in assay [7]; inactive: -0.058 with lapatinib. Also, the log2 fold change in assay [3] was inactive: 0.117; in assay [4], inactive: -0.162.
For the target PLPPR3 isoform 3 (UniProt Q6T4P5), the log2 fold change is inactive: 0.134 in the assay with zotarolimus; inactive: 0.073 in the assay with pictilisib; inactive: -0.007 in [4]; inactive: -0.098 in [5]; inactive: 0.184 with gandotinib; inactive: -0.436 with ispinesib.
Consider PLXNB1 (UniProt O43157), for which the log2 fold change was inactive: 0.076 with filanesib, inactive: -0.17 with idasanutlin, inactive: 0.272 in [3] and inactive: 0.012 in assay [4].
As to PPFIA3 (UniProt O75145), the log2 fold change with zotarolimus is inactive: -0.01; in [4] it was inactive: -0.094; in [5] it was inactive: 0.15.
With PPM1B isoform 2 (UniProt O75688), the log2 fold change is inactive: -0.065 with alisertib and inactive: 0.034 in assay [7].
On to PPIG (UniProt Q13427), for which the log2 fold change in [1] was inactive: 0.04; with alisertib it was inactive: 0.065; in [2] it was inactive: 0.129; in assay [7], inactive: 0.049; in the assay with lapatinib, inactive: -0.079; with crizotinib, inactive: -0.149. Besides, the log2 fold change with duvelisib was inactive: -0.024; in [6] it was inactive: 0.273; with doramapimod, inactive: -0.103; with ispinesib it was inactive: -0.033.
As for POLQ (UniProt O75417), the log2 fold change with alisertib was inactive: 0.052; with gefitinib, inactive: 0.016; in [7], inactive: 0.206; with pictilisib, inactive: 0.225; with gandotinib, inactive: 0.198; with ispinesib, inactive: -0.026.
Regarding PLOD2 isoform 2 (UniProt O00469), the log2 fold change in [1] is inactive: -0.466; with alisertib, inactive: -0.072; in assay [2], inactive: 0.216; in assay [7], inactive: 0.045; with lapatinib, inactive: -0.098; in the assay with crizotinib, inactive: 0.079. For the same target, the log2 fold change in the assay with duvelisib was inactive: -0.015; in [6], inactive: 0.035; in the assay with doramapimod it was inactive: -0.028.
